Laboratory results reported in article PMC12598805, “Crystal Structure–Activity Relationship of Some MeO Phenylacrylonitriles: Dual Antimicrobial–Cytotoxic Effects and in Silico Perspectives” (ChemistryOpen, 2025).
Converted amounts (≈) assume the structure as drawn.

Test system: Candida albicans (ATCC-10231)
Experiment: Broth microdilution MIC
Assay type: cell-based
Conditions: ATCC10231, C.albicans
Description: ATCC: American Type Culture Collection; NRRL: Northern Regional Research Laboratory The compounds 2(a-c) obtained could only be completely solubilised with dimethyl sulphoxide (DMSO) and the highest possible stock solutions of 50 mg.mL-1 were prepared. […]
3.1. Determination of Minimum Inhibition Concentration (MIC)
The minimum inhibition concentration (MIC) values of the compounds 2(a-c) against the test bacteria used in the study were determined according to the broth microdilution method.[1-2] MHB or SDB was used as test medium and bacterial and yeast suspensions were prepared at 0.5 Mc Farland concentration for each test bacteria. Double layer serial dilutions were prepared in "U" type 96-well microtiter plates. Medium+bacteria suspensions containing only medium in the first row, medium+bacteria in the second row and the final concentrations of the synthesised substances in the other rows between 25 mg.mL-1 and […] were added to the wells with a final volume of 200
μL. Ampicillin, Kanamycin and Amphotericin B standard antibiotics were used as positive controls.
Bacteria were incubated at 37±0.1 °C and C. albicans at 30±0.1 °C for 24-48 hours and the lowest concentration without growth was determined as MIC. Tests were performed in two parallel runs and mean values were given as a result. […]

MIC: 250 µg/mL (≈ 271 µM)
Structure (SMILES): C[C@@H]1[C@H](O)[C@@H](C)/C=C/C=C/C=C/C=C/C=C/C=C/C=C/[C@H](O[C@@H]2O[C@H](C)[C@@H](O)[C@H](N)[C@@H]2O)C[C@@H]2O[C@](O)(C[C@@H](O)C[C@@H](O)[C@H](O)CC[C@@H](O)C[C@@H](O)CC(=O)O[C@H]1C)C[C@H](O)[C@H]2C(=O)O [Amphotericin B, reference compound]
